Assay results published in PubChem BioAssay AID248 (DTP/NCI, 2004).
The list is a part of this screen's results and no random one: it is rich in T/C values a quarter to a half above the control, in often repeated tests (any T/C) and in doses without a T/C. Other doses and runs of a compound stand elsewhere. T/C: endpoint of the treated group in % of that of the vehicle group. Some doses have a count of surviving animals in place of a T/C: the source holds a T/C of zero for them, seemingly a mark for toxic or unscored doses. Some doses without a T/C left all or most animals alive at the check, yet need not have been tolerated: survival well below the control is almost never listed, so the zero probably covers shortened survival too. Counts of survivors are from the toxicity check (mostly the fifth day) where no day follows; animals may have died later. Schedules are NCI's codes, taken here to give the interval after Q, in days (D) or hours (H), and the number of doses after X. Some entries were tested several times; the values are given in rising order. For survival time, this PubChem deposit counts one and a half times the control or more as active, and values a quarter to a half above the control carry no call in these data; other NCI protocols may use other cut-offs. Some T/C values are followed by the survivors on the day toxicity was checked, most often the fifth; without a count, all were alive then.

Tested on: L1210 leukemia ip in BDF1 mice, survival T/C
Experiment: NCI In Vivo Anticancer Drug Screen. Data for tumor model L1210 Leukemia (intraperitoneal) in B6D2F1 (BDF1) mice
Settings: higher T/C = longer survival

CC(C)CC(NC(=O)CNC(=O)OCc1ccccc1)C(=O)NC(Cc1ccccc1)C(=O)CCl (centres undefined)
survivor count (T/C endpoint: mean survival time, dose: 150.0 mg/kg/injection, schedule: Q04DX003 (ip), vehicle: Klucel (hydroxypropylcellulose) (HPC)): 5 of 6 | survivor count (T/C endpoint: mean survival time, dose: 300.0 mg/kg/injection, schedule: Q04DX003 (ip), vehicle: Klucel (hydroxypropylcellulose) (HPC)): 0 of 6 | survivor count (T/C endpoint: mean survival time, dose: 400.0 mg/kg/injection, schedule: Q01DX001 (ip), vehicle: Klucel (hydroxypropylcellulose) (HPC)): 2 of 6

C[n+]1ccc(Nc2ccc(NC(=O)c3ccc(Nc4cc[n+](C)c5ccc(N)cc45)cc3)cc2)cc1
T/C (T/C endpoint: mean survival time, dose: 0.5 mg/kg/injection, schedule: Q01DX009 (ip), vehicle: water): 138 % of control | survivor count (T/C endpoint: mean survival time, dose: 0.5 mg/kg/injection, schedule: Q01DX009 (sc), vehicle: water): 3 of 6 | T/C (T/C endpoint: mean survival time, dose: 1.0 mg/kg/injection, schedule: Q01DX009 (ip), vehicle: water): 128, 135, 141 % of control | T/C (T/C endpoint: mean survival time, dose: 2.0 mg/kg/injection, schedule: Q01DX009 (sc), vehicle: Klucel (hydroxypropylcellulose) (HPC)): 131 % of control | T/C (T/C endpoint: mean survival time, dose: 2.0 mg/kg/injection, schedule: Q01DX009 (sc), vehicle: water): 148 % of control | survivor count (T/C endpoint: mean survival time, dose: 16.0 mg/kg/injection, schedule: Q01DX009 (ip), vehicle: Klucel (hydroxypropylcellulose) (HPC)): 2 of 6 | survivor count (T/C endpoint: mean survival time, dose: 16.0 mg/kg/injection, schedule: Q01DX009 (ip), vehicle: water): 0 of 10 and 2 of 6 | survivor count (T/C endpoint: mean survival time, dose: 32.0 mg/kg/injection, schedule: Q01DX009 (ip), vehicle: water): 0 of 10 | survivor count (T/C endpoint: mean survival time, dose: 200.0 mg/kg/injection, schedule: Q04DX003 (ip), vehicle: saline with Tween-80): 2 of 6 | survivor count (T/C endpoint: mean survival time, dose: 400.0 mg/kg/injection, schedule: Q04DX003 (ip), vehicle: saline with Tween-80): 3 of 6 | T/C (T/C endpoint: median survival time, dose: 0.5 mg/kg/injection, schedule: Q03HX008 (ip), vehicle: water): 130 % of control | T/C (T/C endpoint: median survival time, dose: 0.5 mg/kg/injection, schedule: Q03HX016 (ip), vehicle: water): 138 % of control | T/C (T/C endpoint: median survival time, dose: 0.5 mg/kg/injection, schedule: Q03HX024 (ip), vehicle: water): 128 % of control | T/C (T/C endpoint: median survival time, dose: 1.0 mg/kg/injection, schedule: Q01DX005 (ip), vehicle: water): 139 % of control | T/C (T/C endpoint: median survival time, dose: 1.0 mg/kg/injection, schedule: Q01DX009 (ip), vehicle: water): 127 and 135 % of control | T/C (T/C endpoint: median survival time, dose: 1.0 mg/kg/injection, schedule: Q03HX008 (ip), vehicle: water): 125 and 143 % of control | T/C (T/C endpoint: median survival time, dose: 1.0 mg/kg/injection, schedule: Q03HX016 (ip), vehicle: water): 138 % of control | T/C (T/C endpoint: median survival time, dose: 2.0 mg/kg/injection, schedule: Q01DX005 (ip), vehicle: water): 141 % of control | T/C (T/C endpoint: median survival time, dose: 2.0 mg/kg/injection, schedule: Q01DX009 (sc), vehicle: water): 136 % of control | T/C (T/C endpoint: median survival time, dose: 2.0 mg/kg/injection, schedule: Q03HX008 (ip), vehicle: water): 144 % of control | T/C (T/C endpoint: median survival time, dose: 4.0 mg/kg/injection, schedule: Q01DX001 (ip), vehicle: water): 125 % of control | survivor count (T/C endpoint: median survival time, dose: 4.0 mg/kg/injection, schedule: Q01DX009 (ip), vehicle: water): 7 of 10 | T/C (T/C endpoint: median survival time, dose: 4.0 mg/kg/injection, schedule: Q03HX008 (ip), vehicle: water): 148 % of control [9 of 10 alive] | T/C (T/C endpoint: median survival time, dose: 4.0 mg/kg/injection, schedule: Q04DX003 (ip), vehicle: water): 141 % of control | T/C (T/C endpoint: median survival time, dose: 8.0 mg/kg/injection, schedule: Q01DX001 (ip), vehicle: water): 134 % of control | survivor count (T/C endpoint: median survival time, dose: 8.0 mg/kg/injection, schedule: Q01DX005 (ip), vehicle: water): 6 of 10 | survivor count (T/C endpoint: median survival time, dose: 8.0 mg/kg/injection, schedule: Q01DX009 (ip), vehicle: water): 0 of 10 and 4 of 10 | survivor count (T/C endpoint: median survival time, dose: 8.0 mg/kg/injection, schedule: Q03HX008 (ip), vehicle: water): 0 of 10 and 1 of 10 | survivor count (T/C endpoint: median survival time, dose: 8.0 mg/kg/injection, schedule: Q03HX016 (ip), vehicle: water): 4 of 10 and 5 of 10 | survivor count (T/C endpoint: median survival time, dose: 8.0 mg/kg/injection, schedule: Q03HX024 (ip), vehicle: water): 1 of 10 and 5 of 10 | T/C (T/C endpoint: median survival time, dose: 8.0 mg/kg/injection, schedule: Q04DX003 (ip), vehicle: water): 147 % of control | T/C (T/C endpoint: median survival time, dose: 8.0 mg/kg/injection, schedule: Q08DX002 (ip), vehicle: water): 131 % of control [9 of 10 alive] | survivor count (T/C endpoint: median survival time, dose: 16.0 mg/kg/injection, schedule: Q01DX001 (ip), vehicle: water): 0 of 10 | T/C (T/C endpoint: median survival time, dose: 16.0 mg/kg/injection, schedule: Q01DX001 (sc), vehicle: water): 138 % of control | survivor count (T/C endpoint: median survival time, dose: 16.0 mg/kg/injection, schedule: Q01DX005 (ip), vehicle: water): 0 of 10 and 1 of 10 | survivor count (T/C endpoint: median survival time, dose: 16.0 mg/kg/injection, schedule: Q01DX009 (ip), vehicle: water): 0 of 10 | survivor count (T/C endpoint: median survival time, dose: 16.0 mg/kg/injection, schedule: Q01DX009 (sc), vehicle: water): 10 of 10 | survivor count (T/C endpoint: median survival time, dose: 16.0 mg/kg/injection, schedule: Q04DX003 (ip), vehicle: water): 1 of 10 and 5 of 10 | survivor count (T/C endpoint: median survival time, dose: 16.0 mg/kg/injection, schedule: Q08DX002 (ip), vehicle: water): 2 of 10 and 3 of 10 | survivor count (T/C endpoint: median survival time, dose: 32.0 mg/kg/injection, schedule: Q01DX001 (ip), vehicle: water): 0 of 10 and 1 of 10 | T/C (T/C endpoint: median survival time, dose: 32.0 mg/kg/injection, schedule: Q01DX001 (sc), vehicle: water): 132 % of control | survivor count (T/C endpoint: median survival time, dose: 32.0 mg/kg/injection, schedule: Q04DX003 (ip), vehicle: water): 1 of 10 | survivor count (T/C endpoint: median survival time, dose: 32.0 mg/kg/injection, schedule: Q08DX002 (ip), vehicle: water): 0 of 10 | survivor count (T/C endpoint: median survival time, dose: 64.0 mg/kg/injection, schedule: Q01DX001 (ip), vehicle: water): 0 of 10 | survivor count (T/C endpoint: median survival time, dose: 64.0 mg/kg/injection, schedule: Q04DX003 (ip), vehicle: water): 0 of 10 | survivor count (T/C endpoint: median survival time, dose: 64.0 mg/kg/injection, schedule: Q08DX002 (ip), vehicle: water): 0 of 10 and 2 of 10
